Source: the supplement of paper PMC10849652
The other results are listed elsewhere or left out.

Amino acid sequences for entries named in this document (tags omitted). A change or cut given only in a name is not applied to a line headed by its entry.
UniProt Q9UJS0: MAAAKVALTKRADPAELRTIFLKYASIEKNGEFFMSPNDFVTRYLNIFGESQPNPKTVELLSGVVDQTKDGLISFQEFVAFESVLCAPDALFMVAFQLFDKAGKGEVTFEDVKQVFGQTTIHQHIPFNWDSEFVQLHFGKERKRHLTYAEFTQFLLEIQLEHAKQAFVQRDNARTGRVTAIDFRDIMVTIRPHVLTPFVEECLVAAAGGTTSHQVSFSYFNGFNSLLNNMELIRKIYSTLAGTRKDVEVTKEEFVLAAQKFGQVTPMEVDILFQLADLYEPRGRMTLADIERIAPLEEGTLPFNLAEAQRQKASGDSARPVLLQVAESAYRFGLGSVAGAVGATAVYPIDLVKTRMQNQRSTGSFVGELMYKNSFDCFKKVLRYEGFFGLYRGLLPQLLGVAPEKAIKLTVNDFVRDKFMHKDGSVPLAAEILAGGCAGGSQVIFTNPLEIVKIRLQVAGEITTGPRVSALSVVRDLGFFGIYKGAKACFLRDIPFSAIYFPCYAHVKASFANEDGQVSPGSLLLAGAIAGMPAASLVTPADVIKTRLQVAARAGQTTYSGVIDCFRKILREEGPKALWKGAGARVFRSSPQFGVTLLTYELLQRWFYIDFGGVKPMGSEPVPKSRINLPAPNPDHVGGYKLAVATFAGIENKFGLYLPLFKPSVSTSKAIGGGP
UniProt Q9H936: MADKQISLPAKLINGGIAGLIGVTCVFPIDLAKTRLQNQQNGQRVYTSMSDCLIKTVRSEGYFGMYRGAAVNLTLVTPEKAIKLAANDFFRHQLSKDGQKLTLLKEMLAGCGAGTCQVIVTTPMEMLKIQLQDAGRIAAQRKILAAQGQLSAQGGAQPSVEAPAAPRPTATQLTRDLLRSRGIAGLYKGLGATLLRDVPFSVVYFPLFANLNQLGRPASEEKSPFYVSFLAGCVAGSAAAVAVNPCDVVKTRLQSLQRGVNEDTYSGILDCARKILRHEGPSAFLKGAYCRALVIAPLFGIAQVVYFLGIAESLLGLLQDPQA
UniProt Q00325: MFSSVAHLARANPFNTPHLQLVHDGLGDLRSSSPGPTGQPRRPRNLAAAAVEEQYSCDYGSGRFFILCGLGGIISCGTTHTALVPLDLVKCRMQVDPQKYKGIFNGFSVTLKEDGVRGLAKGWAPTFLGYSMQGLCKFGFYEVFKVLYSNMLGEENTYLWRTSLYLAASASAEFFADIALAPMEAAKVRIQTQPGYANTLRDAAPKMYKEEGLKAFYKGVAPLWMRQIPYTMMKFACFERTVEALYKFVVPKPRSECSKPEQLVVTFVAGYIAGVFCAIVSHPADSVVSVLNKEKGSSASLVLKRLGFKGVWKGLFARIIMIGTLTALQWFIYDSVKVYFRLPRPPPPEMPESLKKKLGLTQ
UniProt Q8NEW0: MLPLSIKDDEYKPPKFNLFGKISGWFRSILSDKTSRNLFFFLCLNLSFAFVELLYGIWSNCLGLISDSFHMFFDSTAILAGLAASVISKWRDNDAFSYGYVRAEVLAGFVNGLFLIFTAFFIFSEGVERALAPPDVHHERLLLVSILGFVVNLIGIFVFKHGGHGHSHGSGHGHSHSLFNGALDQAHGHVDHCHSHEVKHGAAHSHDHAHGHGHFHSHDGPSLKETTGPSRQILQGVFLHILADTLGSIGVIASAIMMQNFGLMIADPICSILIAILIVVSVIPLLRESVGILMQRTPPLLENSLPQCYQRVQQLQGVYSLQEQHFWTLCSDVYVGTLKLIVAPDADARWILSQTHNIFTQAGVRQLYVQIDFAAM
UniProt Q8NBI5: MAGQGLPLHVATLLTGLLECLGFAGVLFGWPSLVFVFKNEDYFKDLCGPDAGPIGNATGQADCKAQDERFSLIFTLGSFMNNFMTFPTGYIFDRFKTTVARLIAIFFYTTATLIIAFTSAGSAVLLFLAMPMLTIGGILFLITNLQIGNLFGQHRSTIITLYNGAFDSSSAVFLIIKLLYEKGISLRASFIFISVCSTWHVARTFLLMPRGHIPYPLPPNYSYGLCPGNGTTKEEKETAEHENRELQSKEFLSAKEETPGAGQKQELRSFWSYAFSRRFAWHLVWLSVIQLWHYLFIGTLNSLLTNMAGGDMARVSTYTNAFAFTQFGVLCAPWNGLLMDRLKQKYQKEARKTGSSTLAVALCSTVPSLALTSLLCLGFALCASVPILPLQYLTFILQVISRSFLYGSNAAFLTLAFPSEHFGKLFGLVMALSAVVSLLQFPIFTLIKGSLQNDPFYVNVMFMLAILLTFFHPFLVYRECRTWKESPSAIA
UniProt Q9BXS9: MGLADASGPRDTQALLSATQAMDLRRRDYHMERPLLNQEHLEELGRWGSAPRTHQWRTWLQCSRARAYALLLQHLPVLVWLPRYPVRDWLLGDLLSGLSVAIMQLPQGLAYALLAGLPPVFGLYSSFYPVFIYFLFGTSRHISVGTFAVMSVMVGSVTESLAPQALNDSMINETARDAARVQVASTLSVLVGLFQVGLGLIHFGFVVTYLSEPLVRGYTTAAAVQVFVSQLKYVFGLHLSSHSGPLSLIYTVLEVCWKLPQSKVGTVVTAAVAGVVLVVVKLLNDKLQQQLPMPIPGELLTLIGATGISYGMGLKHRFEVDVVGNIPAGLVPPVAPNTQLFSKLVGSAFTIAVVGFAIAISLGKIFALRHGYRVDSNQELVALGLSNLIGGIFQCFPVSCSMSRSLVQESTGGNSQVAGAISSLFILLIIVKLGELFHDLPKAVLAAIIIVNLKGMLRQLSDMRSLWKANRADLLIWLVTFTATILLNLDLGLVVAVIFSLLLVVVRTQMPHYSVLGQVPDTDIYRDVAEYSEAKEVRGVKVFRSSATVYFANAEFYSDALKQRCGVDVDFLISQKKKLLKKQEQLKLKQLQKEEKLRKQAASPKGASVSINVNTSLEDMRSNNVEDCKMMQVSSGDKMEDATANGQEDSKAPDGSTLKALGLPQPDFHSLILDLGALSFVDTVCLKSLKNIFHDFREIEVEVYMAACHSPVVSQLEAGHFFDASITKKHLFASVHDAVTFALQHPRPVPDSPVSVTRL
UniProt Q86VD7: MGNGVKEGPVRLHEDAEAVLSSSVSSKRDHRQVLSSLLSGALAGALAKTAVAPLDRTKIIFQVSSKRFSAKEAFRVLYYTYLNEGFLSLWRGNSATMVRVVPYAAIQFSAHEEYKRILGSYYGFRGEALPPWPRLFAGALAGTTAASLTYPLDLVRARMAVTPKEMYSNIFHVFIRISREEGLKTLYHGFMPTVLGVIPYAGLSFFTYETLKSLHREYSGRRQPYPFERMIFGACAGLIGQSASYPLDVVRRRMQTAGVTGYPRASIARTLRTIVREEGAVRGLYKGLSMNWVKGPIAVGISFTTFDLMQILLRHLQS
UniProt Q9Y6M7: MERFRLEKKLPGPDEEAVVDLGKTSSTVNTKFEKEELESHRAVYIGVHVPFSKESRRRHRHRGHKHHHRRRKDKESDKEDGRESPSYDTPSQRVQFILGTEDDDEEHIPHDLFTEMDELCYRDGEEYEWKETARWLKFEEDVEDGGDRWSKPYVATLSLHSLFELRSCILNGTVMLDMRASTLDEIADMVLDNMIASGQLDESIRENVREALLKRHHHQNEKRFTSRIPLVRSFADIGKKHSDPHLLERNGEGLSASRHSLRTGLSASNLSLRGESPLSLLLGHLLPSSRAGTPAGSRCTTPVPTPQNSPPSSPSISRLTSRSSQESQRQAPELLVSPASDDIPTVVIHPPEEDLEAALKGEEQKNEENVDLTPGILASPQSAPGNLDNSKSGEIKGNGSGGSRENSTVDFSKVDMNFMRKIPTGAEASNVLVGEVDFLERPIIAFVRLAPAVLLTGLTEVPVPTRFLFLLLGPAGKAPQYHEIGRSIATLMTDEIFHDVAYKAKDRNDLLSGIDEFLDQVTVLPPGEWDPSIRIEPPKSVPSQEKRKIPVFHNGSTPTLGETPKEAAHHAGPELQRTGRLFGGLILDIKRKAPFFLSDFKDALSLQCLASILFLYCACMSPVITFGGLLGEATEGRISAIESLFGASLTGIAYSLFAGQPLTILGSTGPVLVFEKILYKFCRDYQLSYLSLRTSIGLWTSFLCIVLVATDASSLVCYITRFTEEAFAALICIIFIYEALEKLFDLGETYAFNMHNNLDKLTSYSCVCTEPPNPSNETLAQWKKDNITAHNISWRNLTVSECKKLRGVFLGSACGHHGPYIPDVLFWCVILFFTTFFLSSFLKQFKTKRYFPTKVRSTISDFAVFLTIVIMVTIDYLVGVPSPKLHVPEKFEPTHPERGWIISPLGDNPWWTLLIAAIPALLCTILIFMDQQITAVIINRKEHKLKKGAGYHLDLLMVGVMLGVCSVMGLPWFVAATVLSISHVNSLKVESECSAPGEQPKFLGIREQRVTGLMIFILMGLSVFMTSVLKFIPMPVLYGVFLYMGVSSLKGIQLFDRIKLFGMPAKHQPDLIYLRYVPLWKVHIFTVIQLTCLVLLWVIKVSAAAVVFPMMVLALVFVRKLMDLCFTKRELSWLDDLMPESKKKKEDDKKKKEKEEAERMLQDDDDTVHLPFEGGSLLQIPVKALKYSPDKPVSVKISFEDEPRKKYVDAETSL
UniProt Q15599: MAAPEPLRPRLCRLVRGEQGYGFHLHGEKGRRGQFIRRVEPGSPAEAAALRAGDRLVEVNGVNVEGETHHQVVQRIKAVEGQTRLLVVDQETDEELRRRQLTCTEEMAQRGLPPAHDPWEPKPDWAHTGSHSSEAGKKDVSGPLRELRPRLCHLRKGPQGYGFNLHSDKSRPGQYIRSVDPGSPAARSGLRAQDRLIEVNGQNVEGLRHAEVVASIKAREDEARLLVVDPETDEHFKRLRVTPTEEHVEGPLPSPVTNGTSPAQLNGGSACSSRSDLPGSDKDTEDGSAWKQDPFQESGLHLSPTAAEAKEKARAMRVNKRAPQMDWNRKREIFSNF
UniProt Q13485: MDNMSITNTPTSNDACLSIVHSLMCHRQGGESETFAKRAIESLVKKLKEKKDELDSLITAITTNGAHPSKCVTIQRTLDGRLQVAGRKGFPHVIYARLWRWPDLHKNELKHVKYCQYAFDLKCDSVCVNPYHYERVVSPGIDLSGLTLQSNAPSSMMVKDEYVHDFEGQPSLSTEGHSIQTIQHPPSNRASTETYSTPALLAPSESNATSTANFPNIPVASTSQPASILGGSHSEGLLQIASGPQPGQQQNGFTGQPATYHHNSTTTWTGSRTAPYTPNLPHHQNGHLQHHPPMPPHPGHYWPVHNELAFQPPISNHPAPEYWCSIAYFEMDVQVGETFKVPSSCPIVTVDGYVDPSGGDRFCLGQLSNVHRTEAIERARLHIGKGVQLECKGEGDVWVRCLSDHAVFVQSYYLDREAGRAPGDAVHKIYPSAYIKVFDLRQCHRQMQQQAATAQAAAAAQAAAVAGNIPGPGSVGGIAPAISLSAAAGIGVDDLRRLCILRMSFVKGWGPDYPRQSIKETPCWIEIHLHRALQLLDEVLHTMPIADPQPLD
UniProt P48029: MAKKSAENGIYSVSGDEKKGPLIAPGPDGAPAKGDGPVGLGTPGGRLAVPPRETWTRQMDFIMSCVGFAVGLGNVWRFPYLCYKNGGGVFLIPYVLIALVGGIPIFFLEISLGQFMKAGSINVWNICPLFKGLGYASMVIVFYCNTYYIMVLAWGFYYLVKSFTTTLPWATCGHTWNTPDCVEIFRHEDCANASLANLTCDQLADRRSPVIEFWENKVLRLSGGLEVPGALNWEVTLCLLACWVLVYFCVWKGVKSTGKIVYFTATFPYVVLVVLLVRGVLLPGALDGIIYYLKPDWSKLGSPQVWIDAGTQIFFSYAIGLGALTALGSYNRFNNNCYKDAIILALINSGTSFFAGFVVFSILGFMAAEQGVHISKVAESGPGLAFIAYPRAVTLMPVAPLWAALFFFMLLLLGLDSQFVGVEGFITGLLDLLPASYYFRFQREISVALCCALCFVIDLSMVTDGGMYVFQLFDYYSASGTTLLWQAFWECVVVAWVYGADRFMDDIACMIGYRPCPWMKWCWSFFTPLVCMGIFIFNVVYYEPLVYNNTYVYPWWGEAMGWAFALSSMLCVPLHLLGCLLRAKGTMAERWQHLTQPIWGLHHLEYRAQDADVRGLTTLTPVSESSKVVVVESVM
UniProt Q8IYB5: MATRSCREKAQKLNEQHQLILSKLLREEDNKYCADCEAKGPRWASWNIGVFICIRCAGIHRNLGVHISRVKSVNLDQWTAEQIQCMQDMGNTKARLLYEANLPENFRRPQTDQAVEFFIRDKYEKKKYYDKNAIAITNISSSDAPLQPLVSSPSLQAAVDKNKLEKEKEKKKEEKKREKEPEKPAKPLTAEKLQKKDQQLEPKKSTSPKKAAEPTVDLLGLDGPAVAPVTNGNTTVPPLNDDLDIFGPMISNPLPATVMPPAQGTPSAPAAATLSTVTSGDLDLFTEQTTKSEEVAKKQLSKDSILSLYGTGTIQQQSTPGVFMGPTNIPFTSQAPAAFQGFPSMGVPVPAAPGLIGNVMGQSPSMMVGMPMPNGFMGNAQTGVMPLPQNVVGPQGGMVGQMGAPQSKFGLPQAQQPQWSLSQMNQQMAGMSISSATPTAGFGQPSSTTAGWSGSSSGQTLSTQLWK

compound: C[C@H](C1=CC=C(C=C1)C(=O)NC2=C3C=CNC3=NC=C2)N; assay: log2 fold change, soluble protein after heating vs DMSO (PISA); higher = thermal stabilisation; K562 lysate, 10 uM; active = over 0.2 and 3.5 SD of the protein, either way, in both replicates (recomputed)
Procedure, shortened: (§1)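 Quantification was by TMTpro 16plex LC-MS/MS with equalised channel sums, applied to the supernatant after 21,000xg for 90 min. Samples were crude K562 extract at 1 mg/mL protein in PBS pH 7.4 with 1 mM MgCl2, treated with 10 μM compound for 30 min, heated for 3 min across 48°C-58°C, pooled and brought to 0.5% NP-40 at 4°C. Values are log-two fold changes in thermal stability relative to solvent controls, from duplicates.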

Question: How did the log2 fold change turn out when SLIRP (UniProt Q9GZT3) was run?
Answer: inactive: -0.138

Question: With SLC25A13 isoform 2 (UniProt Q9UJS0) as the target, how does the log2 fold change read?
Answer: inactive: -0.079

Question: SLC2A1 (UniProt P11166) was tested. Which log2 fold change did it give?
Answer: inactive: 0.05

Question: For SLC25A22 (UniProt Q9H936), which log2 fold change is on record?
Answer: inactive: -0.03

Question: Which log2 fold change does the source give for SLC44A2 (UniProt Q8IWA5) here?
Answer: inactive: 0.069

Question: With SLC33A1 (UniProt O00400) as the target, how does the log2 fold change read?
Answer: inactive: -0.035

Question: How did the log2 fold change turn out when SLC25A3 isoform 2 (UniProt Q00325) was run?
Answer: inactive: -0.112

Question: For SLC38A9 (UniProt Q8NBW4), which log2 fold change is on record?
Answer: inactive: -0.12

Question: SLC6A6 (UniProt P31641) was tested. Which log2 fold change did it give?
Answer: inactive: 0.082

Question: Which log2 fold change does the source give for SLC30A7 (UniProt Q8NEW0) here?
Answer: inactive: -0.059

Question: With SLC7A5 (UniProt Q01650) as the target, how does the log2 fold change read?
Answer: active: -0.308

Question: Which log2 fold change does the source give for SLC38A7 (UniProt Q9NVC3) here?
Answer: inactive: -0.004

Question: How did the log2 fold change turn out when SLC43A3 isoform 2 (UniProt Q8NBI5) was run?
Answer: inactive: -0.013

Question: SLC4A1AP (UniProt Q9BWU0) was tested. Which log2 fold change did it give?
Answer: inactive: 0.042

Question: For SLC27A2 (UniProt O14975), which log2 fold change is on record?
Answer: inactive: -0.067

Question: For SLC36A4 (UniProt Q6YBV0), which log2 fold change is on record?
Answer: inactive: 0.018

Question: SLC26A6 (UniProt Q9BXS9) was tested. Which log2 fold change did it give?
Answer: inactive: 0.016

Question: How did the log2 fold change turn out when SLC25A21 (UniProt Q9BQT8) was run?
Answer: inactive: -0.084

Question: SLC25A4 (UniProt P12235) was tested. Which log2 fold change did it give?
Answer: inactive: -0.05

Question: How did the log2 fold change turn out when SLC38A10 (UniProt Q9HBR0) was run?
Answer: inactive: -0.136

Question: For SLC25A42 (UniProt Q86VD7), which log2 fold change is on record?
Answer: inactive: -0.051

Question: For SMAP (UniProt O00193), which log2 fold change is on record?
Answer: inactive: -0.032

Question: For SLC3A2 isoform 3 (UniProt P08195), which log2 fold change is on record?
Answer: inactive: -0.039

Question: For SLC25A25 isoform 3 (UniProt Q6KCM7), which log2 fold change is on record?
Answer: inactive: 0.013

Question: How did the log2 fold change turn out when SLC9A1 (UniProt P19634) was run?
Answer: inactive: 0.019

Question: SLC4A7 isoform 7 (UniProt Q9Y6M7) was tested. Which log2 fold change did it give?
Answer: inactive: 0.081

Question: Which log2 fold change does the source give for SLC35A4 (UniProt L0R6Q1) here?
Answer: inactive: -0.066

Question: SLC9A3R2 (UniProt Q15599) was tested. Which log2 fold change did it give?
Answer: inactive: -0.148

Question: SMAD4 (UniProt Q13485) was tested. Which log2 fold change did it give?
Answer: inactive: -0.023

Question: Which log2 fold change does the source give for SLC6A8 isoform 2 (UniProt P48029) here?
Answer: inactive: 0.008

Question: SLC4A2 (UniProt P04920) was tested. Which log2 fold change did it give?
Answer: inactive: -0.037

Question: How did the log2 fold change turn out when SLC30A1 (UniProt Q9Y6M5) was run?
Answer: inactive: -0.049

Question: SLC25A31 (UniProt Q9H0C2) was tested. Which log2 fold change did it give?
Answer: inactive: -0.034

Question: How did the log2 fold change turn out when SMAP2 (UniProt Q8WU79) was run?
Answer: inactive: 0.031

Question: How did the log2 fold change turn out when SLC6A8 (UniProt P48029) was run?
Answer: inactive: -0.242

Question: SLC25A5 (UniProt P05141) was tested. Which log2 fold change did it give?
Answer: inactive: 0.112

Question: Which log2 fold change does the source give for SLC25A1 (UniProt P53007) here?
Answer: inactive: -0.02

Question: Which log2 fold change does the source give for SMAP1 isoform 2 (UniProt Q8IYB5) here?
Answer: inactive: 0.04

compound: C[C@H](Nc1ncnc2nc[nH]c12)c1cc2cccc(Cl)c2c(=O)n1-c1ccccc1 [duvelisib]; assay: as above
Procedure, shortened: as §1

Question: With SLIRP (UniProt Q9GZT3) as the target, how does the log2 fold change read?
Answer: inactive: -0.022

Question: How did the log2 fold change turn out when SLC25A13 isoform 2 (UniProt Q9UJS0) was run?
Answer: inactive: -0.006

Question: Which log2 fold change does the source give for SLC2A1 (UniProt P11166) here?
Answer: inactive: 0.024

Question: For SLC25A22 (UniProt Q9H936), which log2 fold change is on record?
Answer: inactive: -0.012

Question: With SLC44A2 (UniProt Q8IWA5) as the target, how does the log2 fold change read?
Answer: inactive: 0.029

Question: Which log2 fold change does the source give for SLC33A1 (UniProt O00400) here?
Answer: inactive: 0.018

Question: How did the log2 fold change turn out when SLC25A3 isoform 2 (UniProt Q00325) was run?
Answer: inactive: 0.02

Question: With SLC38A9 (UniProt Q8NBW4) as the target, how does the log2 fold change read?
Answer: inactive: -0.043

Question: SLC6A6 (UniProt P31641) was tested. Which log2 fold change did it give?
Answer: inactive: 0.04

Question: How did the log2 fold change turn out when SLC30A7 (UniProt Q8NEW0) was run?
Answer: inactive: 0.108

Question: With SLC7A5 (UniProt Q01650) as the target, how does the log2 fold change read?
Answer: inactive: 0.051

Question: With SLC38A7 (UniProt Q9NVC3) as the target, how does the log2 fold change read?
Answer: inactive: -0.087

Question: For SLC43A3 isoform 2 (UniProt Q8NBI5), which log2 fold change is on record?
Answer: inactive: -0.004

Question: How did the log2 fold change turn out when SLC4A1AP (UniProt Q9BWU0) was run?
Answer: inactive: 0.023

Question: With SLC27A2 (UniProt O14975) as the target, how does the log2 fold change read?
Answer: inactive: 0.031

Question: SLC36A4 (UniProt Q6YBV0) was tested. Which log2 fold change did it give?
Answer: inactive: -0.121

Question: SLC26A6 (UniProt Q9BXS9) was tested. Which log2 fold change did it give?
Answer: inactive: 0.067

Question: How did the log2 fold change turn out when SLC25A21 (UniProt Q9BQT8) was run?
Answer: inactive: 0.02

Question: Which log2 fold change does the source give for SLC25A4 (UniProt P12235) here?
Answer: inactive: 0.031

Question: How did the log2 fold change turn out when SLC38A10 (UniProt Q9HBR0) was run?
Answer: inactive: 0.018

Question: With SLC25A42 (UniProt Q86VD7) as the target, how does the log2 fold change read?
Answer: inactive: -0.039

Question: With SMAP (UniProt O00193) as the target, how does the log2 fold change read?
Answer: inactive: -0.015

Question: SLC3A2 isoform 3 (UniProt P08195) was tested. Which log2 fold change did it give?
Answer: inactive: -0.001

Question: How did the log2 fold change turn out when SLC25A25 isoform 3 (UniProt Q6KCM7) was run?
Answer: inactive: -0.014

Question: Which log2 fold change does the source give for SLC9A1 (UniProt P19634) here?
Answer: inactive: 0.028

Question: With SLC4A7 isoform 7 (UniProt Q9Y6M7) as the target, how does the log2 fold change read?
Answer: inactive: 0.047

Question: With SLC35A4 (UniProt L0R6Q1) as the target, how does the log2 fold change read?
Answer: inactive: 0

Question: With SLC9A3R2 (UniProt Q15599) as the target, how does the log2 fold change read?
Answer: inactive: -0.005

Question: SMAD4 (UniProt Q13485) was tested. Which log2 fold change did it give?
Answer: inactive: -0.015

Question: For SLC6A8 isoform 2 (UniProt P48029), which log2 fold change is on record?
Answer: inactive: -0.163

Question: Which log2 fold change does the source give for SLC4A2 (UniProt P04920) here?
Answer: inactive: -0.052

Question: SLC30A1 (UniProt Q9Y6M5) was tested. Which log2 fold change did it give?
Answer: inactive: 0.026

Question: With SLC25A31 (UniProt Q9H0C2) as the target, how does the log2 fold change read?
Answer: inactive: -0.009

Question: How did the log2 fold change turn out when SMAP2 (UniProt Q8WU79) was run?
Answer: inactive: -0.008

Question: Which log2 fold change does the source give for SLC6A8 (UniProt P48029) here?
Answer: inactive: -0.004

Question: How did the log2 fold change turn out when SLC25A5 (UniProt P05141) was run?
Answer: inactive: -0.037

Question: With SLC25A1 (UniProt P53007) as the target, how does the log2 fold change read?
Answer: inactive: -0.012

Question: How did the log2 fold change turn out when SMAP1 isoform 2 (UniProt Q8IYB5) was run?
Answer: inactive: -0.021
